Experimental data from paper PMC4520688.
These are yes or no findings as the source states them, for the method shown. Binding seen in cells or lysates may run through a third protein. Some binding calls cover weakened binding; strength is not graded here.

Chains of the proteins cited; added tags and fusions are not shown.
UniProt P50750: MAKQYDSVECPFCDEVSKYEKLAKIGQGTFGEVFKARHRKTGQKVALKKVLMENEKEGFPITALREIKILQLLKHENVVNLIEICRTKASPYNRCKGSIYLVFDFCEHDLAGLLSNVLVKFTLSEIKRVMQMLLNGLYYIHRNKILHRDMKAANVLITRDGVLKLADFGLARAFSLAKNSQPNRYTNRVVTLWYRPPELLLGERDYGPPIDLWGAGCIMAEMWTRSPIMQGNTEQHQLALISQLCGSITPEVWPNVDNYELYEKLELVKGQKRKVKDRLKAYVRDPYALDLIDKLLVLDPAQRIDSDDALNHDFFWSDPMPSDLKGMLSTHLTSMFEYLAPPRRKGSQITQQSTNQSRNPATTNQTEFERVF
UniProt O94992: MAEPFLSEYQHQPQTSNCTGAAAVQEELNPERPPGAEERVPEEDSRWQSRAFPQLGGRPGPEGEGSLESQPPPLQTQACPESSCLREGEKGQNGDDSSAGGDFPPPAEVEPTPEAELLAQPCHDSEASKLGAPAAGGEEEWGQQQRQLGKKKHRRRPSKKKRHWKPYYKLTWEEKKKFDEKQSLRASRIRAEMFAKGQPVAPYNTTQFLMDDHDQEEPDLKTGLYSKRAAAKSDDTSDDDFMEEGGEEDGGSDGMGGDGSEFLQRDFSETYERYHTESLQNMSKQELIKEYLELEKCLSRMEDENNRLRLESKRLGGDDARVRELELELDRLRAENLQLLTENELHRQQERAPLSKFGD

Molecular target: CDK9 (human (endogenous in Jurkat)) (UniProt P50750)
Assay: co-IP; IP with anti-CDK9 antibody (control IgG) from 100 ug nuclear extracts of Jurkat cells that were mock-treated or treated with JQ1 (0.25 uM), bryostatin-1 (5 nM) or both for 1 hour or 24 hours; Western blot for CycT1 and HEXIM1

hexamethylene bisacetamide inducible protein 1 (HEXIM1) (from UniProt O94992 1-359)
binding: binds
